Measured values taken from the supplement of paper PMC3334620.
The full ranking holds about 33,000 sequences; the median of “E-score (-0.5 to 0.5)” is about -0.0014, and the highest 2% start at about 0.25. Some of the results follow.

What follows are sequences tested against T1, Cad1 (UniProt P24813) (assay: PBM E-score (8-mer binding enrichment) (E-score (-0.5 to 0.5)); higher = stronger / more preferred TF binding). Conditions: protein concentration: 100 nM; construct: GST-full length.
T1 sequence: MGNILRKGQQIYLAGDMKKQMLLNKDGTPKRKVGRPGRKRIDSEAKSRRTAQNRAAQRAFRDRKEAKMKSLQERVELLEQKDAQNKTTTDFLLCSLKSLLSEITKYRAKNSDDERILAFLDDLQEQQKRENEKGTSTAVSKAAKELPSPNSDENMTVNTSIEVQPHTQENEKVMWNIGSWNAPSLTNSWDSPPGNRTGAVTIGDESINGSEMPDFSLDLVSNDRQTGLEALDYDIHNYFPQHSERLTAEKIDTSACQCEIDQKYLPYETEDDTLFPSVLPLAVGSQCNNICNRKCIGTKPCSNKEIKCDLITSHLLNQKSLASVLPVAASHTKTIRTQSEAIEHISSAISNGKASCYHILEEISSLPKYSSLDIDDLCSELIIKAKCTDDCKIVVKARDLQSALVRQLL
How it was run: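 Each ungapped eight-base word and its reverse complement, pooled, received an E-score from the Universal PBM Analysis Suite. Underlying scans, normalised with masliner, recorded fluorescent anti-GST bound to GST-tagged yeast transcription factors. These were applied at about 100-200 nM to universal all-10-mer Agilent arrays double-stranded by primer extension.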

| Sequence | PBM E-score |
| --- | --- |
| AGTTGGTG | 0.00622 |
| ATGGATTA | 0.0129 |
| ACATGGCT | -0.15 |
| ATCATTGC | -0.0613 |
| GCGGCGAC | 0.0462 |
| CCACCGGA | 0.213 |
| ACAACCAC | 0.056 |
| CTTCGGAC | 0.132 |
| AGACAAGC | -0.0191 |
| TGATACCA | 0.0568 |
| ATCGCCCA | -0.176 |
| CTGACGTC | 0.208 |
| AATTGGGT | 0.219 |
| GAGAGATC | 0.0748 |
| TCGATGCA | 0.0348 |
| AAATCGAC | 0.12 |
| AAACGCTC | -0.0632 |
| CGTAGCAC | 0.0419 |
| GGATTGAA | 0.194 |
| AGGCGTTC | -0.303 |
| ATTCGAGC | -0.0299 |
| GTATGAAA | 0.0978 |
| TATAGACA | 0.0717 |
| GATGAGGA | 0.00167 |
| AAGTTAGT | 0.0879 |

| Sequence | PBM E-score |
| --- | --- |
| ACAGGGTA | -0.0232 |
| AAGTAACG | -0.0002 |
| GGGGGGGA | -0.464 |
| GGGGGTAA | -0.395 |
| ATGGATAG | -0.088 |
| ATAGACAA | 0.136 |
| AGTTGCGC | 0.0854 |
| GAATACGA | -0.0473 |
| TCACATGA | -0.0263 |
| GGGGACAA | -0.143 |
| CACGAGTA | 0.0853 |
| AACTACTG | 0.0241 |
| CCCCTGCC | -0.34 |
| AACAGGGT | -0.225 |
| ACCAAAAT | 0.0849 |
| CATGCATC | 0.148 |
| CGATAACG | -0.0126 |
| AGGCCAGC | -0.122 |
| GATAACGC | 0.0875 |
| CAGATACA | 0.229 |
| ACCCCGGC | -0.245 |
| ACCCCCCC | -0.411 |
| CTCAAGTA | -0.0446 |
| TAGGTACA | -0.17 |
| CAACATCA | 0.115 |

Random excerpt: 2 records from the list.

| Sequence | PBM E-score |
| --- | --- |
| GGGGGGGA | -0.464 |
| AGGCCAGC | -0.122 |

(continued)

| Sequence | PBM E-score |
| --- | --- |
| CCTGCGGA | 0.129 |
| GTCTTTGA | -0.00364 |
| CCACGATC | 0.155 |
| ACGTTTAT | 0.156 |
| AGCAGACG | -0.03 |
| CGCTGCCA | -0.152 |
| CCAGAGAG | -0.239 |
| CGCTGGCC | -0.169 |
| GTAGCCAA | -0.102 |
| AAACCGTT | 0.027 |
| GTAGGCGA | -0.212 |
| CGACAGTC | -0.12 |
| AGTATAAG | 0.0523 |
| CGAGAGTA | 0.106 |
| AGCAGCTG | 0.0375 |
| CAGTGTGC | -0.137 |
| ATAAGATA | 0.264 |
| AACTCGAT | 0.169 |
| AAGACCAC | -0.154 |
| CTCATTGA | -0.22 |
| AGGATGGC | -0.107 |
| CAGAGTGA | -0.0276 |
| ACACTCCG | -0.0219 |
| ATTGGAGA | 0.133 |
| CGGTGCGA | -0.0305 |

6 neighbouring records already listed:

| Sequence | PBM E-score |
| --- | --- |
| CAACATCA | 0.115 |
| CCTGCGGA | 0.129 |
| GTCTTTGA | -0.00364 |
| CCACGATC | 0.155 |
| ACGTTTAT | 0.156 |
| AGCAGACG | -0.03 |

Next results follow:

| Sequence | PBM E-score |
| --- | --- |
| AATTGGAA | 0.0492 |
| CGATGCCC | -0.231 |
| ACAACTCA | 0.106 |
| CCAGACGG | -0.127 |
| AGAGGTTA | 0.0298 |
| AATTCGAT | 0.219 |
| ACGTGGGA | -0.0878 |
| GTACTCAA | -0.0961 |
| AGGCTATC | -0.0241 |
| AATAGGAA | 0.0691 |
| CCGCTATA | -0.158 |
| TGCCGAAA | 0.0985 |
| AATCACCG | 0.185 |
| ACCTAGCC | -0.168 |
| AGGCTGTG | -0.102 |
| AACCCGGA | -0.00506 |
| ATGCCATC | 0.0117 |
| CCGGTGCC | -0.167 |
| GCATATAC | 0.0034 |
| ACGCGGTA | 0.0739 |
| GTTCAGTA | 0.224 |
| CCTGACCG | -0.23 |
| CGTTATCC | 0.013 |
| CAACTCTG | -0.202 |
| AACAGACC | 0.143 |

A second format for part of the listing above.
Sequence | PBM E-score
CTGACGTC | 0.208
AATTGGGT | 0.219
GAGAGATC | 0.0748

The listing continues:

| Sequence | PBM E-score |
| --- | --- |
| CTCGGATC | 0.101 |
| AAAGATTT | -0.0295 |
| CATTCGCC | -0.232 |
| CCCTTTTC | -0.266 |
| CTCGGGGC | -0.323 |
| AGAATCCC | 0.138 |
| CTCCATTC | -0.144 |
| CACAGTAC | 0.0719 |
| CTACGGTC | -0.215 |
| AAATCATT | 0.148 |
| CACAACAC | 0.12 |
| CAGTCCGG | -0.229 |
| ATTGCTCC | -0.0784 |
| GTATAGCA | 0.197 |
| CCTTCCAA | -0.0893 |
| CATAGGCG | -0.107 |
| TACACCTA | 0.132 |
| GCAGGGAC | -0.0954 |
| GAACGCTA | -0.231 |
| GCTAGAGC | -0.15 |
| ACGGGCAT | -0.145 |
| GGGCAAAA | -0.0364 |
| ATATCCGC | 0.108 |
| AGTTGTTC | 0.0834 |
| CAAAAAGG | -0.127 |

| Sequence | PBM E-score |
| --- | --- |
| CTAATGTC | 0.134 |
| AGACTGTG | -0.0862 |
| GTACGGAA | 0.0941 |
| CAGCCTGG | -0.175 |
| ATATCGGA | 0.0646 |
| TACCCGTA | -0.114 |
| CTCCTACC | -0.236 |
| ATCGCCGA | 0.0544 |
| AGTCCCCA | -0.26 |
| AAAAGGGT | -0.0785 |
| TCGGATAA | 0.132 |
| TCTTATAA | 0.0694 |
| CTTCGCGA | 0.143 |
| CGCGTAAC | 0.0624 |
| CAGCGCTC | 0.153 |
| TCACTCCA | 0.0562 |
| ATTAAAGC | 0.0329 |
| CGGTCAGA | 0.0228 |
| AGCAGTTC | -0.0686 |
| AAATGGAC | 0.234 |
| TCAGGTAA | 0.0161 |
| CGTTATAA | 0.163 |
| TACGGGGA | -0.157 |
| ATCAGCCA | -0.126 |
| AGGCCATC | -0.0684 |

| Sequence | PBM E-score |
| --- | --- |
| AGGTAACT | 0.011 |
| CCTCAAGA | -0.172 |
| AAAGAGAA | -0.00557 |
| ACCAACAA | 0.185 |
| CCCTTTCC | -0.177 |
| TCAACGAA | 0.0907 |
| ATGGCCAG | 0.273 |
| AGCGAAAA | -0.0296 |
| ACCAGCGG | -0.15 |
| CCGTGATC | 0.00451 |
| ACCTTGCA | -0.0166 |
| GTATGCCA | -0.16 |
| CTTGTTTA | 0.0129 |
| ACTTTCCC | -0.0753 |
| AACGCGGT | 0.0752 |
| CAATCTTA | 0.023 |
| CACCCAAC | -0.136 |
| ATTGCGTC | 0.159 |
| AACTTATG | 0.0338 |
| CGTAATTC | 0.143 |
| TTGAAAAA | -0.00366 |
| AAAGTCTT | 0.0329 |
